# Test results: PubChem BioAssay AID292 (DTP/NCI, 2004)
# The list shows only some results of the screen, not a fair sample: it gathers tests that were run many times, whatever their T/C, doses with no T/C, and many T/C values between a quarter and a half above the control. Other doses and runs of a compound stand elsewhere. T/C: endpoint of the treated group in % of that of the vehicle group. Some doses have a count of surviving animals in place of a T/C: the source files T/C as zero there, which appears to mark a toxic dose or a test without result, not a measured value. Some doses without a T/C left all or most animals alive at the check, yet need not have been tolerated: survival well below the control is almost never listed, so the zero probably covers shortened survival too. Survivors were counted at the toxicity check, usually on the fifth day, unless a day is given; later deaths do not show. Schedule codes are those of the source, read here as Q, the interval in days (D) or hours (H), X, the number of doses. Some doses were run more than once; their values stand side by side, smallest first. Marks such as (2×) stand for listed records that agree. For survival time, the PubChem record calls one and a half times the control and up active, and a quarter to a half above the control has no call in these data; cut-offs in other NCI protocols can differ. Some T/C values carry the count of animals alive at the toxicity check (mostly the fifth day); where none is given, no animal had died by that day.
# System: B6C3F1 mice, ip Sarcoma M5076, median survival T/C
# Assay: NCI In Vivo Anticancer Drug Screen. Data for tumor model Sarcoma M5076 (intraperitoneal) in B6C3F1 mice
# Conditions: T/C endpoint: median survival time, higher T/C = longer survival
# Procedure, shortened: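 Transplantable tumour in mice; compound-treated vs vehicle-treated groups. Read-out: survival. Value = treated/control ratio.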
# [1] = dose: 300.0 mg/kg/injection, schedule: Q04DX004 (ip), vehicle: saline with Tween-80
# [2] = dose: 600.0 mg/kg/injection, schedule: Q04DX004 (ip), vehicle: saline with Tween-80
# [3] = dose: 400.0 mg/kg/injection, schedule: Q04DX004 (ip), vehicle: saline with Tween-80
# [4] = dose: 800.0 mg/kg/injection, schedule: Q04DX004 (ip), vehicle: saline with Tween-80
# [5] = dose: 2.0 mg/kg/injection, schedule: Q04DX004 (ip), vehicle: saline
# [6] = dose: 2.0 mg/kg/injection, schedule: Q04DX005 (ip), vehicle: saline
# [7] = dose: 50.0 mg/kg/injection, schedule: Q04DX004 (ip), vehicle: Klucel (hydroxypropylcellulose) (HPC)
# [8] = dose: 100.0 mg/kg/injection, schedule: Q04DX004 (ip), vehicle: Klucel (hydroxypropylcellulose) (HPC)
# [9] = dose: 200.0 mg/kg/injection, schedule: Q04DX004 (ip), vehicle: Klucel (hydroxypropylcellulose) (HPC)
# [10] = dose: 400.0 mg/kg/injection, schedule: Q04DX004 (ip), vehicle: Klucel (hydroxypropylcellulose) (HPC)
smiles,measurement,setting,value
CNc1ncn(-c2c(C)cccc2C)c(=O)n1,survivor count,"dose: 150.0 mg/kg/injection, schedule: Q04DX004 (ip), vehicle: saline with Tween-80",5 of 10 on day 14
same,survivor count,[1],6 of 10 on day 14
same,survivor count,[2],0 of 10 on day 14
same,survivor count,"dose: 1200.0 mg/kg/injection, schedule: Q04DX004 (ip), vehicle: saline with Tween-80",0 of 10 on day 14 (2×)
COc1nc2cc3c(cc2n2cccc12)oc1ccccc13,survivor count,"dose: 1.5 mg/kg/injection, schedule: Q04DX004 (ip), vehicle: saline with Tween-80",10 of 10 on day 14
same,survivor count,"dose: 3.0 mg/kg/injection, schedule: Q04DX004 (ip), vehicle: saline with Tween-80",10 of 10 on day 14
same,survivor count,"dose: 3.13 mg/kg/injection, schedule: Q04DX004 (ip), vehicle: saline with Tween-80",9 of 10 on day 14
same,survivor count,"dose: 6.0 mg/kg/injection, schedule: Q04DX004 (ip), vehicle: saline with Tween-80",9 of 10 on day 14
same,survivor count,"dose: 6.25 mg/kg/injection, schedule: Q04DX004 (ip), vehicle: saline with Tween-80",10 of 10 on day 14
same,survivor count,"dose: 12.5 mg/kg/injection, schedule: Q04DX004 (ip), vehicle: saline with Tween-80",9 of 10 on day 14
same,survivor count,"dose: 25.0 mg/kg/injection, schedule: Q04DX004 (ip), vehicle: saline with Tween-80",9 of 10 on day 14 and 10 of 10 on day 14
same,survivor count,"dose: 50.0 mg/kg/injection, schedule: Q04DX004 (ip), vehicle: saline with Tween-80",2 of 10 on day 14 and 9 of 10 on day 14
same,survivor count,"dose: 100.0 mg/kg/injection, schedule: Q04DX004 (ip), vehicle: saline with Tween-80",10 of 10 on day 14
same,survivor count,"dose: 200.0 mg/kg/injection, schedule: Q04DX004 (ip), vehicle: saline with Tween-80",8 of 10 on day 14
same,survivor count,[3],8 of 9 on day 14
C[C@@]12C(=O)OC(=O)[C@]1(C)[C@H]1CC[C@@H]2O1,survivor count,"dose: 2000.0 micrograms/kg/injection, schedule: Q01DX009 (ip), vehicle: acetone",1 of 10 on day 14
N#CCS(=O)(=O)c1cccc[n+]1[O-],survivor count,[3],3 of 9 on day 14
same,survivor count,[4],0 of 10 on day 14
COC(=O)[C@@]12OC[C@]34[C@H]([C@@H](O)[C@@H]1O)[C@@]1(C)CC(=O)C(O)=C(C)[C@@H]1C[C@H]3OC(=O)[C@H](OC(=O)/C=C(\C)C(C)C)[C@@H]24,T/C,"dose: 0.12 mg/kg/injection, schedule: Q04DX004 (ip), vehicle: saline","97, 106, 107, 111, 117 % of control"
same,T/C,"dose: 0.12 mg/kg/injection, schedule: Q04DX005 (ip), vehicle: saline",125 % of control
same,T/C,"dose: 0.13 mg/kg/injection, schedule: Q04DX005 (ip), vehicle: saline",140 % of control
same,T/C,"dose: 0.25 mg/kg/injection, schedule: Q04DX004 (ip), vehicle: saline, evaluated on day 60",98 % of control
same,T/C,"dose: 0.25 mg/kg/injection, schedule: Q04DX004 (ip), vehicle: saline, evaluated on day 75","102, 105 [8 of 10 alive on day 14], 109, 110, 111, 114 [9 of 10 alive on day 9], 125, 127 % of control"
same,T/C,"dose: 0.25 mg/kg/injection, schedule: Q04DX005 (ip), vehicle: saline, evaluated on day 75","88, 106, 114, 121, 123 % of control"
same,T/C,"dose: 0.25 mg/kg/injection, schedule: Q04DX005 (ip), vehicle: saline, evaluated on day 100",165 % of control
same,T/C,"dose: 0.5 mg/kg/injection, schedule: Q04DX004 (ip), vehicle: saline, evaluated on day 60",109 % of control
same,T/C,"dose: 0.5 mg/kg/injection, schedule: Q04DX004 (ip), vehicle: saline, evaluated on day 75","91, 100, 110, 119, 120, 129, 131, 132 % of control"
same,T/C,"dose: 0.5 mg/kg/injection, schedule: Q04DX005 (ip), vehicle: saline, evaluated on day 75","100, 106, 125, 126, 139 % of control"
same,T/C,"dose: 0.5 mg/kg/injection, schedule: Q04DX005 (ip), vehicle: saline, evaluated on day 100",150 % of control
same,T/C,"dose: 1.0 mg/kg/injection, schedule: Q04DX004 (ip), vehicle: saline, evaluated on day 60",110 % of control
same,T/C,"dose: 1.0 mg/kg/injection, schedule: Q04DX004 (ip), vehicle: saline, evaluated on day 75","107 [9 of 10 alive on day 14], 109, 111, 113 [7 of 10 alive on day 14], 120, 121, 124, 150 % of control"
same,T/C,"dose: 1.0 mg/kg/injection, schedule: Q04DX005 (ip), vehicle: saline, evaluated on day 75","97, 115, 123, 143, 156 % of control"
same,T/C,"dose: 1.0 mg/kg/injection, schedule: Q04DX005 (ip), vehicle: saline, evaluated on day 100",147 % of control
same,T/C,[5],"104, 117, 119, 123 [9 of 10 alive on day 14], 139, 142 % of control"
same,survivor count,[5],"3 of 10 on day 14, 3 of 10 on day 9, 6 of 10"
same,T/C,[6],"89 [8 of 10 alive], 94, 129 [7 of 10 alive on day 9], 153 % of control [9 of 10 alive on day 9]"
same,survivor count,[6],5 of 8 on day 17 and 9 of 10 on day 9
same,survivor count,"dose: 4.0 mg/kg/injection, schedule: Q04DX004 (ip), vehicle: saline",1 of 10 on day 14
CC1(C)C(=O)NC(=O)c2ccccc21,survivor count,[7],3 of 10 on day 14
same,survivor count,[8],0 of 10 on day 14
same,survivor count,[9],0 of 10 on day 14
same,survivor count,[10],0 of 10 on day 14
Cc1nnc2nc(N)[nH]n2c1=O,survivor count,"dose: 200.0 mg/kg/injection, schedule: Q04DX004 (ip), vehicle: water",1 of 10 on day 14
same,survivor count,"dose: 400.0 mg/kg/injection, schedule: Q04DX004 (ip), vehicle: water",0 of 10 on day 14
O=C(O)c1cc(C(=O)O)c(C(=O)O)cc1C(=O)O.[NH2-].[NH2-].[NH2-].[NH2-].[Pt+2].[Pt+2],T/C,"dose: 16.0 mg/kg/injection, schedule: Q04DX004 (ip), vehicle: water",138 and 142 % of control
same,survivor count,"dose: 64.0 mg/kg/injection, schedule: Q04DX004 (ip), vehicle: water",4 of 10 on day 14
Nc1ncn(C2OC(CO)C(O)C2O)c(=O)n1 (stereo not drawn),T/C,"dose: 3.0 mg/kg/injection, schedule: Q01DX009 (ip), vehicle: saline",131 and 134 % of control
same,survivor count,"dose: 6.0 mg/kg/injection, schedule: Q01DX009 (ip), vehicle: saline",0 of 10 on day 14 and 6 of 10 on day 14
same,T/C,"dose: 12.5 mg/kg/injection, schedule: Q01DX009 (ip), vehicle: saline",137 and 138 % of control
same,T/C,"dose: 25.0 mg/kg/injection, schedule: Q01DX009 (ip), vehicle: saline",147 % of control
same,survivor count,"dose: 100.0 mg/kg/injection, schedule: Q01DX009 (ip), vehicle: saline",0 of 10 on day 14
same,survivor count,"dose: 200.0 mg/kg/injection, schedule: Q01DX009 (ip), vehicle: saline",0 of 10 on day 14 and 6 of 10 on day 14
N#Cc1c(-c2ccc(F)cc2)c(-c2ccc(F)cc2)nn(CCO)c1=O,T/C,"dose: 200.0 mg/kg/injection, schedule: Q04DX004 (ip), vehicle: distilled water + Tween-80, evaluated on day 48",125 % of control
same,T/C,"dose: 200.0 mg/kg/injection, schedule: Q04DX004 (ip), vehicle: distilled water + Tween-80, evaluated on day 60",147 % of control
Cc1ccc(Nc2nnc(CSc3ccc(Cl)cc3)s2)c(S(=O)(=O)O)c1,survivor count,[1],4 of 10 on day 14
same,survivor count,[2],0 of 10 on day 14
c1cc2c(c(CC3CO3)c1CC1CO1)OCCOCCOCCOCCO2 (stereo not drawn),survivor count,"dose: 400.0 mg/kg/injection, schedule: Q04DX004 (ip), vehicle: saline + alcohol",5 of 10 on day 14
O=Cc1ccc(O)c(O)c1,survivor count,[4],0 of 10 on day 14
Cc1nc2cc3c(cc2n2cccc12)oc1ccccc13,survivor count,"dose: 25.0 mg/kg/injection, schedule: Q04DX004 (ip), vehicle: Klucel (hydroxypropylcellulose) (HPC)",10 of 10 on day 14
same,survivor count,[7],10 of 10 on day 14
same,survivor count,[8],10 of 10 on day 14
same,survivor count,[9],8 of 10 on day 14
same,survivor count,[10],6 of 10 on day 14
